{"source": "patent US6086789A", "about": "“Medical uses of pyruvates” (Case Western Reserve University, priority 1998, dated 2000)", "system": "ketoacidotic diabetic rats", "experiment": "Treatment of ketoacidotic diabetic BB rats", "format": "in vivo", "conditions": "DPAG with insulin", "experimental": "Prediabetic male BB rats were purchased from the University of Massachussetts Breeding Center. They were treated with insulin (PZI 40 U/mL, Anpro Pharmaceutical), mean of 2.1 U for rats weighing between 250-300 g) as soon as they became hyperglycemic. They were used after at least three weeks of clinical stability and steady weight growth. Under general anesthesia, permanent catheters were inserted in a carotid artery and the controlateral external jugular vein. Then, the rats were deprived of insulin for two days. […] The rats were then treated with one of four protocols: […]", "note": "At least one compound was matched to its structure with a doubt left.", "data": [{"smiles": "CC(=O)OCC(COC(=O)C(C)=O)OC(=O)C(C)=O", "note": "(stereo not shown) [DPAG, dipyruvyl-acetyl-glycerol]", "values": [{"measurement": "effect on the decrease in glucose concentration induced by insulin", "result": "did not blunt the decrease in glucose concentration induced by insulin"}]}]}
